# Laboratory results from PubChem BioAssay AID1487 (National Center for Advancing Translational Sciences (NCATS), 2009).
# This is one part of the list. Shown are side measurements of this screen, not its main read-out; they come without a call. Compounds called inactive in the main read-out are mostly missing here. Potencies come from curve fits of mixed quality, noted in brackets.
# Experiment: qHTS Assay for Modulators of Lamin A Splicing
# Settings: HeLa LMNA splicing GFP/RFP minigene ratio, 48 h
# Outline: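 S3 HeLa stable clones carrying a lamin A-EGFP splicing minigene plus DsRed2 were seeded at 600 cells/well in Opti-MEM with 2% FBS, pin-dosed and incubated 48 h at 37°C. Acumen cytometry (488 nm) gave the GFP/RFP total-intensity ratio.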
# [1] = measured here: RFP viability control channel
# [2] = measured here: GFP splicing reporter channel
SMILES,AC50 [1],AC50 [2]
O=C(NCc1ccccn1)c1cc(-c2ccc(-c3ccccc3)cc2)nc2ccccc12,"2.51 µM [rising, full curve]",–
Cc1nc2ccc(NC(=O)c3cc(S(=O)(=O)N(C)c4ccccc4)ccc3Cl)cc2s1,"2.24 µM [rising, full curve]","4.47 µM [rising, partial curve]"
O=C(OCCN1C(=O)c2ccccc2C1=O)c1ccco1,"35.5 µM [falling, single point]","35.5 µM [falling, single point]"
CC(/C=N/n1c(-c2ccc(Cl)cc2)n[nH]c1=S)=C\c1ccco1,"35.5 µM [rising, single point]",–
COc1cc(NC(=O)c2ccc3c(SCC(=O)O)c4c(nc3c2)CCCC4)cc(OC)c1OC,–,"0.708 µM [rising, full curve, poor fit]"
CCOC(=O)c1[nH]c(C)c(C(=O)Nc2cc(Cl)ccc2C)c1C,"6.31 µM [rising, partial curve, poor fit]",–
COc1ccccc1CNc1ncnc2ccc(-c3ccccc3C#N)cc12,"17.8 µM [falling, partial curve]","11.2 µM [falling, partial curve]"
COc1ccc(NS(=O)(=O)c2cccc(Cl)c2)cc1S(=O)(=O)N1CCCCC1,–,"11.2 µM [rising, partial curve, poor fit]"
COc1cccc(OCCCN2CCN(S(=O)(=O)c3ccc(NC(C)=O)cc3)CC2)c1,"10 µM [rising, partial curve, poor fit]",–
COc1ccc(NC(=O)CC2C(=O)N(CCc3ccccc3)C(=S)N2Cc2cccnc2)cc1 (configuration not stated),"11.2 µM [falling, partial curve, poor fit]","11.2 µM [falling, partial curve, poor fit]"
CCC(C)n1c(SCC(=O)Nc2cc(C(C)(C)C)nn2-c2ccccc2)nc2ccccc2c1=O (configuration not stated),"12.6 µM [rising, partial curve]","10 µM [rising, partial curve]"
NS(=O)(=O)c1cc(C(=O)N2CCc3ccccc32)c(Cl)cc1Cl,"17.8 µM [rising, single point]",–
CCC(Sc1nc2ccccc2s1)C(=O)Nc1cc(C)on1 (configuration not stated),"35.5 µM [rising, single point]",–
Cc1nc(C(F)(F)F)ccc1C(=O)Nc1ccccc1F,"0.891 µM [falling, partial curve]","0.141 µM [falling, full curve]"
CCN(CCCNC(=O)CCc1nc(-c2ccc(C)cc2)no1)c1cccc(C)c1,"35.5 µM [rising, single point]",–
Cn1c(=O)[nH]c(=O)c2c1ncn2CCCc1ccccc1,"3.16 µM [rising, partial curve, poor fit]","0.112 µM [rising, full curve, poor fit]"
COCCNC(=S)N/N=C/c1c(C)[nH]c2ccccc12,"15.8 µM [rising, partial curve]",–

# Structural class, those above containing four or more nitrogen atoms
SMILES,AC50 [1],AC50 [2]
CC(/C=N/n1c(-c2ccc(Cl)cc2)n[nH]c1=S)=C\c1ccco1,"35.5 µM [rising, single point]",–
COc1ccccc1CNc1ncnc2ccc(-c3ccccc3C#N)cc12,"17.8 µM [falling, partial curve]","11.2 µM [falling, partial curve]"
COc1ccc(NC(=O)CC2C(=O)N(CCc3ccccc3)C(=S)N2Cc2cccnc2)cc1 (configuration not stated),"11.2 µM [falling, partial curve, poor fit]","11.2 µM [falling, partial curve, poor fit]"
CCC(C)n1c(SCC(=O)Nc2cc(C(C)(C)C)nn2-c2ccccc2)nc2ccccc2c1=O (configuration not stated),"12.6 µM [rising, partial curve]","10 µM [rising, partial curve]"
CCN(CCCNC(=O)CCc1nc(-c2ccc(C)cc2)no1)c1cccc(C)c1,"35.5 µM [rising, single point]",–
Cn1c(=O)[nH]c(=O)c2c1ncn2CCCc1ccccc1,"3.16 µM [rising, partial curve, poor fit]","0.112 µM [rising, full curve, poor fit]"
COCCNC(=S)N/N=C/c1c(C)[nH]c2ccccc12,"15.8 µM [rising, partial curve]",–

# Additional compounds.

SMILES,AC50 [1],AC50 [2]
CC(=O)Nc1ccc(S(=O)(=O)Nc2cccc(NC(=O)c3ccco3)c2)cc1,"2.24 µM [falling, partial curve]",–
COc1ccccc1-c1ccc2ncnc(N3CCN(C)CC3)c2c1,"5.62 µM [falling, partial curve, poor fit]",–
C=CCc1cc(C)ccc1OCCOCCn1ccnc1,"14.1 µM [rising, partial curve, poor fit]",–
O=[N+]([O-])c1ccc(/C=C/C2=NN(c3ccccc3)C(c3ccco3)C2)o1 (configuration not stated),–,"0.00794 µM [falling, full curve, poor fit]"
NC(=O)c1c(NC(=O)CS(=O)(=O)c2ccc(Cl)cc2)sc2c1CCCC2,"31.6 µM [rising, single point]",–
C=CCN1CCc2c(cc(O)c(O)c2Cl)C(c2ccccc2)C1 (configuration not stated),"35.5 µM [rising, single point]","35.5 µM [falling, single point]"
Cc1ccc(S(=O)(=O)NCc2ccncc2)cc1,"5.62 µM [rising, full curve]",–
CCOc1ccccc1-n1c(SCC(N)=O)nnc1-c1ccccc1,"4.47 µM [falling, full curve, poor fit]",–
CC12CCC(C/C1=N\N=C1\NC(=O)/C(=C\c3cccc(Br)c3)S1)C2(C)C (configuration not stated),"0.447 µM [falling, partial curve]","0.316 µM [falling, full curve, poor fit]"
COc1cccc(-c2nccc(NCc3ccccc3)n2)c1,"20 µM [falling, partial curve, poor fit]","11.2 µM [falling, partial curve]"
COCC(C)NC(=O)COc1ccc(Cl)cc1Cl (configuration not stated),"14.1 µM [rising, partial curve]",–
Cc1ccc(NC(=O)C2CCN(C(=O)c3sc4nc[nH]c(=O)c4c3C)CC2)cc1F,"2.24 µM [rising, partial curve]",–
C[C@@H]1CCC2[C@@H](C)[C@@H](O)O[C@@H]3O[C@@]4(C)CC[C@@H]1[C@@]23OO4 (some centres not stated),"10 µM [falling, partial curve]","0.178 µM [rising, full curve]"
COc1ccc(C2CC(=O)c3cnc(NC(=O)c4ccccc4)nc3C2)c(OC)c1 (configuration not stated),"10 µM [rising, single point]",–
COC(=O)c1ccc(NC(=O)C(=O)NCCc2csc3nc(-c4ccccc4F)nn23)cc1,"17.8 µM [falling, single point]","11.2 µM [falling, single point]"
CCOC(=O)N1CCN(Cc2nc3cc(NC(=O)CC(C)C)ccc3n2C(C)C)CC1,"0.501 µM [rising, full curve]",–
CC(C)CC1NC(=O)C(CCCN)NC(=O)C(C(C)C)NC(=O)C2CCCN2C(=O)C(Cc2ccccc2)NC(=O)C(CC(C)C)NC(=O)C(CCCN)NC(=O)C(C(C)C)NC(=O)C2CCCN2C(=O)C(Cc2ccccc2)NC1=O (configuration not stated),"1 µM [rising, full curve, poor fit]","0.794 µM [rising, full curve]"
